# Experimental data as given in article PMC11753425.
# These are yes or no findings as the source states them, for the method shown. Where a sequence is shown, tags or fusion partners need not be part of it.
# Molecular target: full-length OrfG (BACTH fusion) (Streptococcus thermophilus)
# Test: two-hybrid; bacterial two-hybrid (BACTH), T18 and T25 fusions co-expressed in E. coli DHT1, 30°C, X-Gal plates and β-galactosidase activity
binder,measurement,value
"OrfE (BACTH fusion) (protein, UniProt Q935T1 1-125) MTNERLYDYSKGLNAPYWIQEIKTKKGIRLWYFATPMQLSFFIVFTFVFVAMLLFGGFILVPLAKFTHSISLLLYWYLPYKLAKFYTEYEPHGKKMHVFIGDCLIYFWDFKLNKKAIYHEDRIDQ",binding,no binding
